This assay addresses ATP6V1D (human (endogenous in HeLa)) (UniProt Q9Y5K8). The assay is described as follows: co-IP; immunoprecipitation of ATP6V1D from cell lysates, blot for ATG16L1 and ATP6V1D; cells treated with 2 uM Torin1, 10 uM AMDE-1 or 10 uM niclosamide for 6 h (Figure 6I) or 20 uM AMDE-1 for 3 h (Figure 7J); IP lysis buffer 50 mM Tris-HCl pH 7.4, 1% TritonX-100, 150 mM NaCl, 1 mM EDTA.

Protein sequences, listed by entry. Tags and fused reporters are not part of them. Lines headed by an entry give the natural chain unless they say otherwise; changes in a name come on top.
UniProt Q9Y5K8: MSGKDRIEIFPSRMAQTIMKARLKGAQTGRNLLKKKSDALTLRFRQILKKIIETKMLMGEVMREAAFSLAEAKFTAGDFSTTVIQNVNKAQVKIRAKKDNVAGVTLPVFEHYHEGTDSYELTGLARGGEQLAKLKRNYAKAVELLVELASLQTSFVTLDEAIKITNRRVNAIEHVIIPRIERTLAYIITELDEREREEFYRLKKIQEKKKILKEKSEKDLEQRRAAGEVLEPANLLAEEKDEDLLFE
UniProt Q676U5: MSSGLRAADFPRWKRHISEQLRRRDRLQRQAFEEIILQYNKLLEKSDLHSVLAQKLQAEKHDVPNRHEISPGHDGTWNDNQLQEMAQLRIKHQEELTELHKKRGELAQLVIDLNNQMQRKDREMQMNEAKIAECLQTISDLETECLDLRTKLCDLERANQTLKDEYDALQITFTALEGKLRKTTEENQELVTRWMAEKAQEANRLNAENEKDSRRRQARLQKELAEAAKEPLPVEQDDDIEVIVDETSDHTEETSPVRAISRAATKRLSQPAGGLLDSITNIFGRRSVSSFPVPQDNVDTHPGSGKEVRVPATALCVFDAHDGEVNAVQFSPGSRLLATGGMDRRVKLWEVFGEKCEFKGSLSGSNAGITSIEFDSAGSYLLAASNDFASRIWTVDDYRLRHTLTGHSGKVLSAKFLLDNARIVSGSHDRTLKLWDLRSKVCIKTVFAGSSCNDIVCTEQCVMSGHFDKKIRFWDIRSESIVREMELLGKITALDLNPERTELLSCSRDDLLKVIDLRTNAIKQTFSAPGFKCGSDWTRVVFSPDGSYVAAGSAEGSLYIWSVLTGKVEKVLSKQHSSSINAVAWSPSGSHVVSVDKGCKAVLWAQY

Results are given in words; binding and its absence hold for the method and conditions named. In cells and extracts the contact can be indirect. Binding can be weak; no strength is given.

Take GFP-ATG16L1^ΔWD2 (from UniProt Q676U5): the binding entry is “binds weakly”.
